Laboratory results published in PubChem BioAssay AID624297 (National Center for Advancing Translational Sciences (NCATS), 2012).
Out of some 340,000 compounds screened, about 6,200 (1.8%) were called active. The shares of active, inactive and inconclusive entries below differ from those in the screen. Calls follow the shape of the dose curve; as a rule, active = well fitted activation curve with a large enough effect; inconclusive = small, poorly fitted or top-dose-only effect; inactive = no such curve, though single readings can be large or run the other way. Potencies beside an inconclusive call are fits to weak or partial responses and may not hold up.

Test: A quantitative high throughput screen for small molecules that induce DNA re-replication in SW480 colon adenocarcinoma cells. Also: nearly all actives have a fitted effect of over 55% in size.
Details: Hoechst DNA content imaging, 48 h; series mostly up to 46.1 µM
In short: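 Cells (250 per well) received 23 nL compound or DMSO by pin tool and were kept 48 hr at 37 C, 5% CO2. Nuclei were then stained with Hoechst for 40 min and scanned for DNA content.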
Potency is read from the fitted curve at half-maximal effect.

Row | SMILES | Potency
1 | O=C(CCN1CCCCC1)c1ccc2c(c1)OCCO2 | inconclusive: 29.1 µM [activator, single point]
2 | COc1ccc(-c2cc(=O)oc3cc(OCC(=O)Nc4ccccn4)ccc23)cc1 | inconclusive: 29.1 µM [activator, single point]
3 | Oc1ccc(Cl)cc1-c1cc(-c2ccccc2Cl)[nH]n1 | inconclusive: 14.6 µM [activator, single point]
4 | S=c1[nH]nc(C2CC2c2ccc(Cl)cc2)n1-c1ccc(Cl)cc1 (configuration not stated) | inconclusive: 4.11 µM [activator, partial curve, poor fit]
5 | CCCC(C)C(=O)Nc1nc(C)c(-c2csc(Nc3ccc(Cl)cc3)n2)s1 (configuration not stated) | inconclusive: 7.31 µM [activator, single point]
6 | O=C(/C=C/Nc1ccc(F)cc1F)c1ccco1 | inconclusive: 5.8 µM [activator, full curve, poor fit]
7 | COc1ccc(N(CC(=O)N2CCOCC2)S(C)(=O)=O)cc1 | inactive
8 | NC(=O)C1CCN(CCS(=O)(=O)c2ccc(Cl)cc2)CC1 | active: 18.4 µM
9 | Cc1cccc(C(=O)OCC(=O)N2CC(=O)Nc3ccccc32)c1C | inconclusive: 13 µM [activator, partial curve, poor fit]
10 | COCCN(C(=O)COC(=O)C1CCC(C(C)(C)C)CC1)c1c(N)n(Cc2ccccc2)c(=O)[nH]c1=O (configuration not stated) | inconclusive: 29.1 µM [activator, partial curve, poor fit]
11 | Cc1ccc2[nH]c(O)c(N=NC(=O)C3CC3c3ccccc3)c2c1Br (configuration not stated) | inconclusive: 23.1 µM [activator, single point]
12 | CC(=O)N=c1n(C)c2ccccc2n1CCOc1ccccc1 | inconclusive: 32.6 µM [activator, partial curve, poor fit]
13 | CC(C)/C=C/CN1CCCC(N2CCN(c3cccc(Cl)c3)CC2)C1 (configuration not stated) | inconclusive: 16.4 µM [activator, single point]
14 | N#Cc1c(NC(=O)c2ccc(Br)o2)n(-c2ccccc2)c2nc3ccccc3nc12 | inconclusive: 20.6 µM [activator, single point]
15 | O=C1C2C3C=CC(CNS(=O)(=O)c4ccccc4)(O3)C2C(=O)N1c1ccc(Cl)cc1 (configuration not stated) | active: 11.6 µM
16 | CCOc1ccccc1N=c1oc2cc(O)ccc2cc1C(=O)NCC1CCCO1 (configuration not stated) | inconclusive: 35.5 µM [activator, single point]
17 | O=C1CC(c2ccc(F)cc2)CC2=C1C(c1ccc([N+](=O)[O-])o1)Nc1ccccc1N2 (configuration not stated) | inconclusive: 29.1 µM [activator, single point]

Already shown: entries from further up.
Row | SMILES | Potency
7 | COc1ccc(N(CC(=O)N2CCOCC2)S(C)(=O)=O)cc1 | inactive
8 | NC(=O)C1CCN(CCS(=O)(=O)c2ccc(Cl)cc2)CC1 | active: 18.4 µM
